## Results of single-concentration screens

The values are deposited in ChEMBL (CHEMBL3988442, “University of Dundee, Small-Polar-MMV Screening Library” (2021)).

Results are given as percent effect.
How 0% and 100% were set is not recorded. Most values in the screen are low, and negative values occur.
Compounds were drawn at random from those tested, without regard to their results.

Toxoplasma: 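Assay of Toxoplasma gondii numbers, read through their beta-galactosidase reporter with a colour substrate. Concentration: 10 µM. Higher reads as fewer parasites (inferred from which compounds were picked for retests). Of about 67,000 compounds tested this way, about 260 (0.38%) reached 50% or more in at least one test.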
T. brucei: 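Whole-parasite assay of Trypanosoma brucei over 72 hours; the read-out is not stated. Concentration: 30 µM. Higher reads as stronger inhibition (inferred: compounds with an IC50 in retests scored well above the rest). Values scatter widely below zero; nearly all retest evidence comes from the higher of the two concentrations used. Of about 64,000 compounds tested this way, about 940 (1.5%) reached 50% or more in at least one test.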
Leishmania in macrophages: 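Cell assay of Leishmania donovani living inside macrophages; the read-out is not stated. Compounds at 30 µM. The record gives no direction; compounds that gave an IC50 in retests scored well above the rest, so higher reads as stronger inhibition. Of about 69,000 compounds tested this way, about 1,000 (1.5%) reached 50% or more in at least one test.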

For Cc1cc(C2CCCN(C(=O)COc3cc(F)ccc3F)C2)n[nH]1 (stereo not drawn) the result was Toxoplasma: 9.617%; T. brucei: -28.87%; Leishmania in macrophages: -12.04%.
For Cn1cc(CN2CCc3nc(-c4ccccn4)nc(O)c3C2)cn1 the result was Toxoplasma: -1.83%; T. brucei: 6.516%; Leishmania in macrophages: 18.36%.
For CC(C)n1ccnc1C1CCCN(c2ccncc2F)C1 (stereo not drawn) the result was Toxoplasma: 6.674%; T. brucei: -2.182%; Leishmania in macrophages: 19.26%.
For Cc1cccc(N2CCC(N3CCCC4(CNC(=O)O4)C3)CC2)c1C (stereo not drawn) the result was Toxoplasma: 10.28%; T. brucei: 13.01%; Leishmania in macrophages: 12.99%.
For COCCCNC(=O)c1ccccc1S(C)(=O)=O the result was Toxoplasma: -1.758%; T. brucei: -10.3%; Leishmania in macrophages: 5.811%.
For CN1Cc2ccccc2CC2(CCN(C(=O)N3CCOCC3)CC2)C1=O the result was Toxoplasma: 4.485%; T. brucei: -24.2%; Leishmania in macrophages: 18.07%.
For Cc1ccccc1-n1cc(C2=CCN(CCN3CCOCC3)CC2)cn1 the result was Toxoplasma: 3.696%; T. brucei: 2.791%; Leishmania in macrophages: 17.76%.
For CN(C)CCNC(=O)c1ccc(OC2CCN(C3CCC3)CC2)c(Cl)c1 the result was Toxoplasma: -4%; T. brucei: 26.18%; Leishmania in macrophages: 24.18%.
For CCN(C)c1ncnc2c1CCN(Cc1nccs1)CC2.O=C(O)C(F)(F)F.O=C(O)C(F)(F)F the result was Toxoplasma: 3.835%; T. brucei: -3.329%; Leishmania in macrophages: -8.042%.
For O=S(=O)(Cc1ccccc1Cl)N1CCC2(CC1)OCCS2 the result was Toxoplasma: 7.402%; T. brucei: -8.169%; Leishmania in macrophages: -19.82%.
For CN(CC(=O)N1CC(Oc2ccccc2Cl)C1)Cc1ccncc1 the result was Toxoplasma: 16.1%; T. brucei: -5.596%; Leishmania in macrophages: -5.458%.
For Fc1cnc(N2CC[C@@H](N3CCOCC3)[C@@H]2Cc2cccnc2)nc1.O=C(O)C(F)(F)F.O=C(O)C(F)(F)F the result was Toxoplasma: 7.765%; T. brucei: -80.01%; Leishmania in macrophages: 4.471%.
For Cc1nc(CC(=O)N2CCc3nnc(N(C)C)cc3C2)cs1 the result was Toxoplasma: 2.895%; T. brucei: 8.321%; Leishmania in macrophages: 32.9%.
For CN(c1ccccc1)S(=O)(=O)c1cc2c(c(C(=O)O)c1)OCCO2 the result was Toxoplasma: -2.693%; T. brucei: -54.15%; Leishmania in macrophages: 16.55%.
For CCOc1cc(C(=O)NS(C)(=O)=O)cc(-c2ccccc2)c1OC the result was Toxoplasma: -64.23%; T. brucei: -38.02%; Leishmania in macrophages: 24.16%.
For Cc1cc(N2C[C@H](NC(=O)C3(C#N)CCOCC3)[C@@H](C(C)C)C2)ccn1 the result was Toxoplasma: -2.54%; T. brucei: -34.35%; Leishmania in macrophages: 7.593%.
For [H][C@@]12CS(=O)(=O)C[C@]1([H])N(C(=O)c1cc(C(C)C)on1)CCN2C the result was Toxoplasma: 18.09%; T. brucei: -33.01%; Leishmania in macrophages: -21.42%.
For Cc1cccc(NC(=O)Cn2ncc(SCC(N)=O)c(Cl)c2=O)c1C the result was Toxoplasma: 0.2189%; T. brucei: -42.94%; Leishmania in macrophages: 30.79%.
For COc1cccc(SCCCn2cnc3c(N)ncnc32)c1 the result was Toxoplasma: 22.91%; T. brucei: -4.235%; Leishmania in macrophages: -21.81%.
For COc1ccc(C(=O)Nc2cc(CC(C)C)nn2C)cc1 the result was Toxoplasma: -6.88%; T. brucei: -9.444%; Leishmania in macrophages: -13.36%.
For COCCCN1CC2(CCC1=O)CCN(Cc1cc(C)no1)CC2 the result was Toxoplasma: -3.812%; T. brucei: -19.97%; Leishmania in macrophages: -27.29%.
For Cc1cc(N2CCN(Cc3nccn3C)CC2)cc(C)n1 the result was Toxoplasma: -10.47%; T. brucei: -32.32%; Leishmania in macrophages: -18.29%.
For O=C(c1cccnc1)N1Cc2[nH]nc(COCCO)c2C1 the result was Toxoplasma: -3.074%; T. brucei: -71.5%; Leishmania in macrophages: 25%.
For Cc1nc(CNC2(C(=O)OC(C)(C)C)CCCC2)oc1C the result was Toxoplasma: 2.185%; T. brucei: -28.81%; Leishmania in macrophages: 26.67%.
For O=C(c1cnc(-c2ccco2)s1)N1CCOc2ncccc21 the result was Toxoplasma: -6.866%; T. brucei: -18.25%; Leishmania in macrophages: 4.094%.
For CC(=O)N(Cc1ncc(C)o1)C1CCN(Cc2cc(C)on2)C1 (stereo not drawn) the result was Toxoplasma: 6.838%; Leishmania in macrophages: 15.95%.
For Cc1ccc(CN2C[C@@H](c3ccccc3)[C@@]3(CCNC3=O)C2)o1 the result was Toxoplasma: -9.239%; T. brucei: -107.9%; Leishmania in macrophages: 14.74%.
For O=C(O)C(F)(F)F.O=C(O)C(F)(F)F.[H][C@@]12CC(=O)N(Cc3cccc(C)n3)[C@@]1([H])CCN2Cc1ccc(OC)cc1 the result was Toxoplasma: 1.131%; T. brucei: -40.33%; Leishmania in macrophages: 7.752%.

Once more, the final 3:

With CC(=O)N(Cc1ncc(C)o1)C1CCN(Cc2cc(C)on2)C1 (stereo not drawn) the screen gave Toxoplasma: 6.838%; Leishmania in macrophages: 15.95%.
With Cc1ccc(CN2C[C@@H](c3ccccc3)[C@@]3(CCNC3=O)C2)o1 the screen gave Toxoplasma: -9.239%; T. brucei: -107.9%; Leishmania in macrophages: 14.74%.
With O=C(O)C(F)(F)F.O=C(O)C(F)(F)F.[H][C@@]12CC(=O)N(Cc3cccc(C)n3)[C@@]1([H])CCN2Cc1ccc(OC)cc1 the screen gave Toxoplasma: 1.131%; T. brucei: -40.33%; Leishmania in macrophages: 7.752%.